The values below come from publication PMC10050012.

Results are given in words; binding and its absence hold for the method and conditions named. For some of these results: A result given as binding can be weak or reduced; the word gives no strength. For some of these results: In cells and extracts the contact can be indirect.

The target in test [1] is AKT/Protein Kinase B (human (endogenous in NB4)). The test is described as follows: condition: only cells treated with ATRA + NC9 (30 μM) for 5 days; co-IP; as a1, NB4 WT cells treated with ATRA + NC9 (30 μM, TG2 inhibitor) for 5 days.
The target in test [2] is PI3K-p85 regulatory subunit (human (endogenous in NB4)). The description is as above.
The target in test [3] is AKT/Protein Kinase B (human (endogenous in NB4)). The test is described as follows: condition: only cells treated with ATRA + PP2 (20 μM) for 5 days; co-IP; as a1, NB4 WT cells treated with ATRA + PP2 (20 μM, c-SRC inhibitor) for 5 days.
Test [4] concerns the target PI3K-p85 regulatory subunit (human (endogenous in NB4)). Described as above.
Test [5] deals with AKT/Protein Kinase B (human (endogenous in NB4)). The test is described as follows: co-IP; immunoprecipitation from the plasma membrane fraction (and total cell lysate) of ATRA-treated NB4 WT cells with a polyclonal TG2 antibody and, reciprocally, with antibodies to mTOR, AKT, CD18, p85, PI3K/p110, PTEN and c-SRC; Western blot.
Test [6] addresses PI3K-p85 regulatory subunit (human (endogenous in NB4)). The description is as above.
For test [7], the target named is PI3K/p110 (human (endogenous in NB4)). The description is as above.
Test [8] deals with AKT/Protein Kinase B (human (endogenous in NB4)). As to the kind of experiment: far-Western, overlay or dot blot; modified far-western blot with disuccinimidyl suberate (DSS): bait proteins immunoprecipitated from plasma membrane, renatured and incubated with plasma membrane lysates; bound prey detected by a primary antibody; NB4 WT cells with ATRA for 5 days, also for 2 days, and NB4 WT CD18-/- cells; only the target purified.

Test [9] has as its target PI3K-p85 regulatory subunit (human (endogenous in NB4)). The test is described as above.
The target of test [10] is PI3K/p110 (human (endogenous in NB4)). The description is as above.

B1: transglutaminase 2 (protein, UniProt P21980 1-687)
chain: MAEELVLERCDLELETNGRDHHTADLCREKLVVRRGQPFWLTLHFEGRNYEASVDSLTFSVVTGPAPSQEAGTKARFPLRDAVEEGDWTATVVDQQDCTLSLQLTTPANAPIGLYRLSLEASTGYQGSSFVLGHFILLFNAWCPADAVYLDSEEERQEYVLTQQGFIYQGSAKFIKNIPWNFGQFEDGILDICLILLDVNPKFLKNAGRDCSRRSSPVYVGRVVSGMVNCNDDQGVLLGRWDNNYGDGVSPMSWIGSVDILRRWKNHGCQRVKYGQCWVFAAVACTVLRCLGIPTRVVTNYNSAHDQNSNLLIEYFRNEFGEIQGDKSEMIWNFHCWVESWMTRPDLQPGYEGWQALDPTPQEKSEGTYCCGPVPVRAIKEGDLSTKYDAPFVFAEVNADVVDWIQQDDGSVHKSINRSLIVGLKISTKSVGRDEREDITHTYKYPEGSSEEREAFTRANHLNKLAEKEETGMAMRIRVGQSMNMGSDFDVFAHITNNTAEEYVCRLLLCARTVSYNGILGPECGTKYLLNLNLEPFSEKSVPLCILYEKYRDCLTESNLIKVRALLVEPVINSYLLAERDLYLENPEIKIRILGEPKQKRKLVAEVSLQNPLPVALEGCTFTVEGAGLTEEQKTVEIPDPVEAGEEVKVRMDLLPLHMGLHKLVVNFESDKLKAVKGFRNVIIGPA
With B1, the binding result in [1] is on record as “no binding”; in test [2], “no binding”; in test [3], “no binding”; in [4], “no binding”; in [5], “binds”; in test [6], “binds”. Moreover, the binding entry in test [7], in [8], in test [9] and in [10] was “binds” throughout.
